# Results of single-concentration screens

Protein sequences, listed by entry. Tags and fused reporters are not part of them. Residues count along the entry.
UniProt Q8IDJ8, 1-583: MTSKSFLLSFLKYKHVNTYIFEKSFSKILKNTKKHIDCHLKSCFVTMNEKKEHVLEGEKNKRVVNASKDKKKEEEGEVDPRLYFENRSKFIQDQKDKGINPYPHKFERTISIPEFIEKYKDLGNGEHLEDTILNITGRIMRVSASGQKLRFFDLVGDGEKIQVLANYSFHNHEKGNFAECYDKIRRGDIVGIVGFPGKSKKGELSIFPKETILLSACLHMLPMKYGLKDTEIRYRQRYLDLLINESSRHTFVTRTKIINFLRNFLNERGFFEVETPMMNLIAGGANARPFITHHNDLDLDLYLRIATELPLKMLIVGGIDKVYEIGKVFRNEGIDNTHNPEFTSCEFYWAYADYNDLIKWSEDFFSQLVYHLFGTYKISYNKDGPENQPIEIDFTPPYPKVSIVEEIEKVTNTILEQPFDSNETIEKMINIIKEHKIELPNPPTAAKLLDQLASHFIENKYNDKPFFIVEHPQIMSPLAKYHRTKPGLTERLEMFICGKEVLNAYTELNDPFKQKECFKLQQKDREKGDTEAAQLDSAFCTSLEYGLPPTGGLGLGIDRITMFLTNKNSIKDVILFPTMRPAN
UniProt P9WPC5, whole entry: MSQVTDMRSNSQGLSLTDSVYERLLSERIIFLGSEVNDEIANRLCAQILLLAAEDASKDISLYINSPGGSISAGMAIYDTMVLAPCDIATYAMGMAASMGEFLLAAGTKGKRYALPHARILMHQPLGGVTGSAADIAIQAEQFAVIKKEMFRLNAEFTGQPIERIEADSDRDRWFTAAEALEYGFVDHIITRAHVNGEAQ
UniProt P9WPC3, whole entry partner: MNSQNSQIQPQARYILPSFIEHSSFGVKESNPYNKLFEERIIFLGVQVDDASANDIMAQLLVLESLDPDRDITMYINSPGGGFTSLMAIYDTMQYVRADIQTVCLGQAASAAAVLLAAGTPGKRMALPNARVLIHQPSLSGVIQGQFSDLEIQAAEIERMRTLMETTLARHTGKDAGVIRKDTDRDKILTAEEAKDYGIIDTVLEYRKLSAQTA

Results are given as percent effect. The record does not define 0% and 100%; most values in the screen are far below 50% and negative numbers occur (in some assays of this library far below -100). Compounds were drawn at random from those tested, without regard to their results.

PfKRS1: 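Lysine-tRNA ligase, Plasmodium falciparum 3D7 (UniProt Q8IDJ8). Enzyme assay of the cytosolic lysyl-tRNA synthetase in 384-well plates, read by luminescence. Concentration: 30 µM. Higher reads as stronger inhibition, judged from the few compounds that gave an IC50. About 69,000 compounds were tested under these conditions; 0.071% (about 49) showed 50% or more at least once.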
ClpP1P2: 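Protease assay of ClpP1P2, read by the AMC dye that it sets free. Target: ClpP1P2, Mycobacterium tuberculosis (UniProt P9WPC5 and UniProt P9WPC3). Tested at 50 µM. Higher reads as stronger inhibition, judged from the few compounds that gave an IC50. Most other retested compounds had strongly negative values. Size under these conditions: about 69,000 compounds, about 10 of them at 50% or above in at least one test.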

SMILES | PfKRS1 | ClpP1P2
CCCn1ncc(-c2ccnc(N[C@@H]3C[C@@H]4CC[C@H]3C4)n2)c1C | 3.494 | -2.297
c1nc(CCC2CCCN2)cc(N2CCCCCC2)n1 (stereo not shown) | 3.366 | -8.284
CCCN1CCC(NC(=O)c2csc(C)c2-c2ccc(C)cc2)CC1 | 3.39 | -4.58
CNC(=O)CN1CCC(CN(C)Cc2ccc(C)cc2C)CC1 | -0.8213 | 0.1556
O=C1[C@H]2CN(Cc3ccccn3)C[C@H]2CN1c1ccsc1 | 0.2932 | -0.2155
Cc1nc2ccccc2nc1CN1CCc2c(nc(C3CC3)n2C)C1 | 0.1256 | -16.89
CC(=O)N1CC[C@H]2OCC[C@@H](C(=O)N3CCCCO3)[C@@H]2C1 | 4.793 | 0.01308
CNC(=O)c1cc2c(nc1N(C)C)CCN(c1ncc(C)cn1)CC2 | 3.589 | 6.822
COc1cc(C2C3=C(COC3=O)Nc3[nH]nc(C)c32)cc(Br)c1O (stereo not shown) | 2.649 | 10.55
O=C(NCc1nn(-c2ccccc2)c2c1CCC2)C1CC1 | 0.6404 | -24.3
CC(C)Cc1noc(CN2CCN(C(=O)c3cccc(F)c3)CC2)n1 | -0.1486 | -8.303
Cc1noc(C(C)N2CCN(c3ncnc4sccc34)CC2)n1 (stereo not shown) | 4.668 | -1.669
CC(C)c1nccn1CCC(=O)N1CCCCC1c1ccn[nH]1 (stereo not shown) | 0.5268 | -2.061
CCc1noc(C(C)N2CCN(Cc3nc(C)c(C)o3)CC2)n1 (stereo not shown) | -6.1 | 6.127
CCN(CC)C[C@H]1CN2CC[C@H]1C[C@@H]2CNC(=O)c1ccco1 | 8.222 | -1.869
CN(CCO)Cc1nnc(C2CCN(C(=O)c3cc[nH]c3)CC2)n1C | 2.135 | 1.366
COc1ccc(OC)c(C2CCN(c3ccc4cc[nH]c4n3)C2)c1 (stereo not shown) | 2.091 | 1.658
c1cnn(CCN2CCOC(Cn3cncn3)C2)c1 (stereo not shown) | 8.877 | 10.25
O=C(NCCCO)C1(CC2CC(c3ccc(F)cc3)=NO2)CCOCC1 (stereo not shown) | -1.128 | -19.47
Cc1cc(S(=O)(=O)Nc2onc(C)c2C)sc1C | 6.761 | -3.254
Cc1cc(C2CCCCN2C(=O)CN2CC3(CCNCC3)OC2=O)no1 (stereo not shown) | 8.042 | -9.554
CCN1CCC(CC(=O)NCCc2nc(N)cc(O)n2)CC1 | -4.384 | -12.69
CCc1ccc(Cn2nccc2NC(=O)C2CCS(=O)(=O)C2)cc1 (stereo not shown) | 2.037 | 4.061
CC(C)c1cc(C(=O)N2CCN(C)[C@@H]3CS(=O)(=O)C[C@@H]32)no1 | -0.4191 | 3.391
COc1cc(Cl)c(CN2CCC(C(N)=O)C2)cc1Cl (stereo not shown) | 5.368 | -3.846
CCN(CC)CCCN1CCN(c2nc(C)cnc2C)CC1 | 2.065 | 4.68
NCCn1cc(C(=O)N2CCNC(=O)C2c2cccc(F)c2)nn1 (stereo not shown) | -0.4116 | -0.04143
Cc1nc(CN2CCN(C(=O)c3scnc3C)CC2)cs1 | 3.524 | -4.247
CC(=O)N(Cc1ncc(C(C)C)o1)C1CCN(CCn2cncn2)C1 (stereo not shown) | -1.694 | -19.56
CC(C(=O)NCc1ccc(-n2cncn2)nc1)n1ccnc1 (stereo not shown) | 3.026 | 9.188
O=C(c1cc(C2CC2)on1)N1CCC(Oc2ncccc2Br)CC1 | 4.244 | -1.68
CCn1cncc1CNc1ccc(-c2nc(CC(C)C)no2)cn1 | 1.696 | -2.759
O=C1CC[C@@H]2[C@@H](CCN2C(=O)C2CCOCC2)N1CC1CC1 | 2.366 | 1.772
Cc1cccc(C)c1OC1CN(C(=O)C2CCN(C(=O)N(C)C)CC2)C1 | 1.553 | 4.004
Cn1ccnc1CN1CCN2C[C@H](Oc3ccccc3)C[C@H]2C1 | 6.418 | -10.96
CC(C)(C)c1nc(C(C)(C)NC(=O)C2CC(=O)N(CC3CC3)C2)no1 (stereo not shown) | 0.4086 | -1.415
COc1cc(N2CC3(CCN(S(C)(=O)=O)C3)C2)ncn1 | 1.706 | 4.206
O=C([C@H]1CC[C@@H]2[C@@H](CCN2C2CCOCC2)O1)N1CCOCC1 | 3.82 | -4.958
Cc1cc(N2CCC(Cc3ccccc3)CC2)ncn1 | 3.7 | 14.05
CN(C)C(CNC(=O)OCC(F)(F)F)c1ccsc1 (stereo not shown) | 1.438 | 3.114
Cc1nn(C)c(N(C)C)c1CNCCCN(C)S(C)(=O)=O | 3.61 | 11.68
CCc1ncc2c(n1)CN(Cc1nnc(C)o1)CC2 | 3.651 | -15.39
CCN1C(=O)CC[C@@H]2[C@H]1CCN2S(=O)(=O)c1cccs1 | 4.153 | -11.58
Cc1cccc(CN2CCCC2c2cccc(CCC(=O)O)n2)c1 (stereo not shown) | 1.349 | -12.06
NC(=O)c1ccnc(N2CCCC(CO)(Cc3ccc(F)cc3)C2)c1 (stereo not shown) | 5.181 | -4.09
CN(C)C(=O)[C@@H]1CC[C@@H]2[C@@H](CCN2Cc2nccs2)O1 | -1.106 | -4.032

For reference, 3 entries once more:

COc1cc(N2CC3(CCN(S(C)(=O)=O)C3)C2)ncn1 read PfKRS1: 1.706%; ClpP1P2: 4.206%.
Cc1cccc(CN2CCCC2c2cccc(CCC(=O)O)n2)c1 (stereo not shown) read PfKRS1: 1.349%; ClpP1P2: -12.06%.
CCCN1CCC(NC(=O)c2csc(C)c2-c2ccc(C)cc2)CC1 read PfKRS1: 3.39%; ClpP1P2: -4.58%.

From ChEMBL document CHEMBL3988442, “University of Dundee, Small-Polar-MMV Screening Library” (2021).